Experimental data from patent US20050053993A1, “Uses of an endothelial cell receptor” (priority 2002, published 2005).
These are yes or no findings as the source states them, for the method shown. In cells and extracts the contact can be indirect. Some binding calls cover weakened binding; strength is not graded here.

The chains behind the UniProt entries cited, without tags or fusion partners. Residues count along the entry.
UniProt P11021, residues 19-654: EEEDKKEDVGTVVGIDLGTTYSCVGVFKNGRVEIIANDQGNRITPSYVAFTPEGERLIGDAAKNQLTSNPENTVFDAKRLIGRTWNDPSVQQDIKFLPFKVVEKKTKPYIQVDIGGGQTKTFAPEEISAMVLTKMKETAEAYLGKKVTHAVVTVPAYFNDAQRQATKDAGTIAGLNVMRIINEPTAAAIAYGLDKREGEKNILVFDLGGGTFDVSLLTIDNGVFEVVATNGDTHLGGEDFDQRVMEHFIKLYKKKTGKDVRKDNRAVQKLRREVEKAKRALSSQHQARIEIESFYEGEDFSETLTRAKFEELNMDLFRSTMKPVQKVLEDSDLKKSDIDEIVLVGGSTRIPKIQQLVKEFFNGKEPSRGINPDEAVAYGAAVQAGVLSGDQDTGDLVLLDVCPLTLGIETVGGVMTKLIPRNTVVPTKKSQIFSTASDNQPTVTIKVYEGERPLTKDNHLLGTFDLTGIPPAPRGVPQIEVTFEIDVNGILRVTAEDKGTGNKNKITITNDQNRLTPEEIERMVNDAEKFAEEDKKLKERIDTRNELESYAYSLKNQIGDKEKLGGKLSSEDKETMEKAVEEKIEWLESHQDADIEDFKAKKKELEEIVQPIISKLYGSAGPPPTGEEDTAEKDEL

Target: GRP78 on the surface of human cells (EAHY, HMVEC, HT1080) (human) (UniProt P11021)
Test: S-tag-K5 pull-down of biotinylated EAHY surface proteins

B1: N-term-S-tag-Kringle 5 (ligand, human, UniProt P00747 481-560, looked up, not shown: small tags and cut ends)
chain: CMFGNGKGYRGKRATTVTGTPCQDWAAQEPHRHSIFTPETNPRAGLEKNYCRNPDGDVGGPWCYTTNPRKLYDYCDVPQC
- binding: binds
